Drawing on publication PMC8500273, this text covers binding for one molecule.

Results are given in words; binding and its absence hold for the method and conditions named. Binding seen in cells or lysates may run through a third protein. Binding calls can cover weak binding; strength is not graded here. Where a sequence is shown, tags or fusion partners need not be part of it.

The assay addresses mCherry-hRab7a-His (human). As to the kind of experiment: co-IP; HEK293 cells overexpressing the tagged proteins; Co-IP lysis buffer (50 mM Tris-HCl, 5 mM EDTA, 150 mM NaCl, 0.5% Nonidet-P40, 10% glycerol, pH 7.4); M2-Flag, anti-His or anti-Myc beads overnight at 4°C; western blot; for Coro1a with Rab7a also with Trim4 siRNA and 100 nM MLN4924 for 12 h.

B1: mCherry-hCoro1a-K233R-Flag (protein, UniProt P31146 1-461)
chain: MSRQVVRSSKFRHVFGQPAKADQCYEDVRVSQTTWDSGFCAVNPKFVALICEASGGGAFLVLPLGKTGRVDKNAPTVCGHTAPVLDIAWCPHNDNVIASGSEDCTVMVWEIPDGGLMLPLREPVVTLEGHTKRVGIVAWHTTAQNVLLSAGCDNVIMVWDVGTGAAMLTLGPEVHPDTIYSVDWSRDGGLICTSCRDKRVRIIEPRKGTVVAEKDRPHEGTRPVRAVFVSEGRILTTGFSRMSERQVALWDTKHLEEPLSLQELDTSSGVLLPFFDPDTNIVYLCGKGDSSIRYFEITSEAPFLHYLSMFSSKESQRGMGYMPKRGLEVNKCEIARFYKLHERRCEPIAMTVPRKSDLFQEDLYPPTAGPDPALTAEEWLGGRDAGPLLISLKDGYVPPKSRELRVNRGLDTGRRRAAPEASGTPSSDAVSRLEEEMRKLQATVQELQKRLDRLEETVQAK
Turning to B1, the binding entry is listed as “binds weakly”.
